Measured values: the supplement of paper PMC4635364
Where a name gives a salt, the structure may show the parent alone. Some of the results follow. Single values are uncertain here, since repeats match poorly.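 Human fetal ventral-midbrain neural progenitor line ReNCell VM, differentiated without mitogens. Images stained for doublecortin (early neurons) or tyrosine hydroxylase (dopaminergic neurons) were scored by blinded raters against untreated wells (0 = no change). Repeats and both raters were averaged, and compounds averaging 2 or higher were picked as hits for retesting.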

Tests used:
[1] = tested on: ReNCell VM; test: neuronal differentiation score (DCX+ cell fraction vs untreated, manual image score) (score (-3 to 3)); higher = more neuronal differentiation; conditions: 2 uM, 2 weeks
[2] = tested on: ReNCell VM; test: dopaminergic neuron differentiation score (TH+ cell fraction vs untreated, manual image score) (score (0 to 3)); higher = more TH+ dopaminergic neuron differentiation; conditions: 2 uM, 4 weeks, BDNF 10 ng/ml + GDNF 10 ng/ml

c1ccc(-c2ccc(C(c3ccccc3)n3ccnc3)cc2)cc1 (centres undefined) [Bifonazole]
neuronal differentiation score ([1]; library: Prestwick): inactive: 0 | dopaminergic neuron differentiation score ([2]; library: Prestwick): active: 3

C=C(C)[C@@H]1CC[C@]2(CO)CC[C@]3(C)[C@H](CC[C@@H]4[C@@]5(C)CC[C@H](O)C(C)(C)[C@@H]5CC[C@]43C)[C@@H]12
neuronal differentiation score ([1]; library: Spectrum): inactive: 0 | dopaminergic neuron differentiation score ([2]; library: Spectrum): inactive: 0

CC(NC1CSCC1O)=C1C(=O)CC2C1C2(C)C (centres undefined)
neuronal differentiation score ([1]; library: Natural): inactive: 0 | dopaminergic neuron differentiation score ([2]; library: Natural): inactive: 0

OC[C@H]1NC[C@@H](O)[C@@H](O)[C@@H]1O [1-Deoxymannojirimycin hydrochloride]
neuronal differentiation score ([1]; library: Tocriscreen): inactive: 0 | dopaminergic neuron differentiation score ([2]; library: Tocriscreen): inactive: 0

CC(C)(C)NC[C@H](O)COc1ccccc1C1CCCC1 [Penbutolol sulfate]
neuronal differentiation score ([1]; library: Prestwick): inactive: 0 | dopaminergic neuron differentiation score ([2]; library: Prestwick): inactive: 0

Cc1ccc(N(CC2=NCCN2)c2cccc(O)c2)cc1 [Phentolamine mesylate]
neuronal differentiation score ([1]; library: LOPAC): inactive: 0 | dopaminergic neuron differentiation score ([2]; library: LOPAC): inactive: 0

CN(C)S(=O)(=O)c1ccc2c(c1)/C(=C/c1cc3c([nH]1)CCCC3)C(=O)N2
neuronal differentiation score ([1]; library: LOPAC): inactive: 0 | dopaminergic neuron differentiation score ([2]; library: LOPAC): inactive: 0

CO/N=C(\C(=O)N[C@@H]1C(=O)N2C(C(=O)O)=C(CSC(=O)c3ccco3)CS[C@H]12)c1csc(N)n1
neuronal differentiation score ([1]; library: Spectrum): inactive: 0 | dopaminergic neuron differentiation score ([2]; library: Spectrum): inactive: 0

COc1cc2c(cc1OC)C(=O)OC2
neuronal differentiation score ([1]; library: Spectrum): inactive: 0 | dopaminergic neuron differentiation score ([2]; library: Spectrum): inactive: 0

COc1ccc(-c2cc(=O)c3c(O)cc(O)cc3o2)cc1 [Acacetin]
neuronal differentiation score ([1]; library: Phytochemical): inactive: 0 | dopaminergic neuron differentiation score ([2]; library: Phytochemical): inactive: 0

Cc1nc(Nc2ncc(C(=O)Nc3c(C)cccc3Cl)s2)cc(N2CCN(CCO)CC2)n1
neuronal differentiation score ([1]; library: Spectrum): inactive: 0 | dopaminergic neuron differentiation score ([2]; library: Spectrum): inactive: 0

O=C(O)CCc1ccc(NCc2cccc(Oc3ccccc3)c2)cc1
neuronal differentiation score ([1]; library: Tocriscreen): inactive: 0 | dopaminergic neuron differentiation score ([2]; library: Tocriscreen): inactive: 0
